Assay results: publication PMC12796736
Results are given in words; binding and its absence hold for the method and conditions named. In cells and extracts the contact can be indirect. A yes stands for co-enrichment or nearness to the bait. Other partners may have been found.

Chains of the proteins cited; added tags and fusions are not shown.
UniProt P18872: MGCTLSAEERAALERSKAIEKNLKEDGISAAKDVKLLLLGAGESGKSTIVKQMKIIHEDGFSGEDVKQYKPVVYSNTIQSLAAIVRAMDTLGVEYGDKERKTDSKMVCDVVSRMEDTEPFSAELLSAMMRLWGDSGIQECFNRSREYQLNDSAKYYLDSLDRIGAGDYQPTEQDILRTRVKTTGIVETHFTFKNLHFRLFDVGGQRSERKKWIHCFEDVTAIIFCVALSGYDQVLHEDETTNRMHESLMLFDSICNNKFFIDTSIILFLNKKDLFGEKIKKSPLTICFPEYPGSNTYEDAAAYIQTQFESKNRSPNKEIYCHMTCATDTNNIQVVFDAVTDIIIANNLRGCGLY

B1: RGS7 (protein, UniProt O54829 1-469)
chain: MAQGNNYGQTSNGVADESPNMLVYRKMEDVIARMQDEKNGIPIRTVKSFLSKIPSVFSGSDIVQWLIKNLTIEDPVEALHLGTLMAAHGYFFPISDHVLTLKDDGTFYRFQTPYFWPSNCWEPENTDYAVYLCKRTMQNKARLELADYEAESLARLQRAFARKWEFIFMQAEAQAKVDKKRDKIERKILDSQERAFWDVHRPVPGCVNTTEVDIKKSSRMRNPHKTRKSVYGLQNDIRSHSPTHTPTPETKPPTEDELHQQIKYWQIQLDRHRLKMSKVADSLLSYTEQYVEYDPFLVPPDPSNPWLSDDTTFWELEASKEPSQQRVKRWGFGMDEALKDPVGREQFLKFLESEFSSENLRFWLAVEDLKRRPIREVPSRVQEIWQEFLAPGAPSAINLDSKSYDKTTQNVKEPGRYTFEDAQEHIYKLMKSDSYPRFIRSSAYQELLQAKRKGKTLTSKRLTSLVQSY
B2: resistance to inhibitors of cholinesterase 8A (protein, UniProt Q3TIR3 1-530)
chain: MEPRAVADALETGEEDAVTEALRSFNREHSQSFTFDDAQQEDRKRLAKLLVSVLEQGLSPKHRVTWLQTIRILSRDRSCLDSFASRQSLHALACYADITVSEEPIPQSPDMDVLLESLKCLCNLVLSSPTAQMLAAEARLVVRLAERVGLYRKRSYPHEVQFFDLRLLFLLTALRTDVRQQLFQELHGVRLLTDALELTLGVAPKENPPVMLPAQETERAMEILKVLFNITFDSVKREVDEEDAALYRYLGTLLRHCVMVEAAGDRTEEFHGHTVNLLGNLPLKCLDVLLALELHEGSLEFMGVNMDVISALLAFLEKRLHQTHRLKECVAPVLNVLTECARMHRPARKFLKAQVLPPLRDVRTRPEVGDLLRNKLVRLMTHLDTDVKRVAAEFLFVLCSESVPRFIKYTGYGNAAGLLAARGLMAGGRPEGQYSEDEDTDTEEYREAKASINPVTGRVEEKPPNPMEGMTEEQKEHEAMKLVNMFDKLSRHRVIQPMGMSPRGHLTSLQDAMCETMEGQLSSDPDSDPD

How the values were obtained:
[1] = molecular target: G⍺o, alpha subunit of the heterotrimeric G protein Go (native, mouse brain) (mouse (endogenous in mouse brain)) (UniProt P18872); assay: affinity purification with mass spectrometry; G⍺o immunopurified (sc-13532) from GTPγS-pretreated mouse brain lysate, three independent lysates; LC-MS/MS; enrichment against G⍺o-GDP samples and isotype-matched control antibody samples
[2] = molecular target: G⍺o, alpha subunit of the heterotrimeric G protein Go (native, mouse brain) (mouse (endogenous in mouse brain)) (UniProt P18872); assay: affinity purification with mass spectrometry; G⍺o immunopurified (sc-13532) from GDP-pretreated mouse brain lysate, three independent lysates; LC-MS/MS; enrichment against G⍺o-GTPγS samples and control antibody samples

Binder	binding [1]	binding [2]
B1	binds	–
B2	–	binds
